Experimental findings from paper PMC3545278 (Journal of pharmaceutical and biomedical analysis, 2012) are described below.

Structures are written as SMILES.

The nature of data set [1]: Ultrafiltration. The data set is classed as in vitro ADME. The following applies: mouse, mouse plasma.
Data set [2] can be described thus: Ultrafiltration. The following applies: human, human plasma.
The nature of data set [3]: Plasma stability, 37°C for 20 min, human plasma. In kind it is in vitro ADME. The following applies: 5% CO2, 20 min, mean ± SEM.

For the molecule `Cc1cc(NS(=O)(=O)c2ccc(N)cc2)no1` [Sulfamethoxazole], the values for the recovery at 20 min, 10 μM in the data set “Ultrafiltration [1]” and in the data set “Ultrafiltration [2]” were 112 ± 3.7% and 106 ± 2.7%, respectively.
On to `CC(C)NCC(O)COc1ccc(CC(N)=O)cc1` (stereo not drawn) [Atenolol], for which the “%Stability” value in data set [3] was 104.2±1.0%.
